# Paper doi:10.1101/2022.10.17.512236
# By UniProt entry, the sequences of proteins in these tests, tags left out.
# UniProt Q14789: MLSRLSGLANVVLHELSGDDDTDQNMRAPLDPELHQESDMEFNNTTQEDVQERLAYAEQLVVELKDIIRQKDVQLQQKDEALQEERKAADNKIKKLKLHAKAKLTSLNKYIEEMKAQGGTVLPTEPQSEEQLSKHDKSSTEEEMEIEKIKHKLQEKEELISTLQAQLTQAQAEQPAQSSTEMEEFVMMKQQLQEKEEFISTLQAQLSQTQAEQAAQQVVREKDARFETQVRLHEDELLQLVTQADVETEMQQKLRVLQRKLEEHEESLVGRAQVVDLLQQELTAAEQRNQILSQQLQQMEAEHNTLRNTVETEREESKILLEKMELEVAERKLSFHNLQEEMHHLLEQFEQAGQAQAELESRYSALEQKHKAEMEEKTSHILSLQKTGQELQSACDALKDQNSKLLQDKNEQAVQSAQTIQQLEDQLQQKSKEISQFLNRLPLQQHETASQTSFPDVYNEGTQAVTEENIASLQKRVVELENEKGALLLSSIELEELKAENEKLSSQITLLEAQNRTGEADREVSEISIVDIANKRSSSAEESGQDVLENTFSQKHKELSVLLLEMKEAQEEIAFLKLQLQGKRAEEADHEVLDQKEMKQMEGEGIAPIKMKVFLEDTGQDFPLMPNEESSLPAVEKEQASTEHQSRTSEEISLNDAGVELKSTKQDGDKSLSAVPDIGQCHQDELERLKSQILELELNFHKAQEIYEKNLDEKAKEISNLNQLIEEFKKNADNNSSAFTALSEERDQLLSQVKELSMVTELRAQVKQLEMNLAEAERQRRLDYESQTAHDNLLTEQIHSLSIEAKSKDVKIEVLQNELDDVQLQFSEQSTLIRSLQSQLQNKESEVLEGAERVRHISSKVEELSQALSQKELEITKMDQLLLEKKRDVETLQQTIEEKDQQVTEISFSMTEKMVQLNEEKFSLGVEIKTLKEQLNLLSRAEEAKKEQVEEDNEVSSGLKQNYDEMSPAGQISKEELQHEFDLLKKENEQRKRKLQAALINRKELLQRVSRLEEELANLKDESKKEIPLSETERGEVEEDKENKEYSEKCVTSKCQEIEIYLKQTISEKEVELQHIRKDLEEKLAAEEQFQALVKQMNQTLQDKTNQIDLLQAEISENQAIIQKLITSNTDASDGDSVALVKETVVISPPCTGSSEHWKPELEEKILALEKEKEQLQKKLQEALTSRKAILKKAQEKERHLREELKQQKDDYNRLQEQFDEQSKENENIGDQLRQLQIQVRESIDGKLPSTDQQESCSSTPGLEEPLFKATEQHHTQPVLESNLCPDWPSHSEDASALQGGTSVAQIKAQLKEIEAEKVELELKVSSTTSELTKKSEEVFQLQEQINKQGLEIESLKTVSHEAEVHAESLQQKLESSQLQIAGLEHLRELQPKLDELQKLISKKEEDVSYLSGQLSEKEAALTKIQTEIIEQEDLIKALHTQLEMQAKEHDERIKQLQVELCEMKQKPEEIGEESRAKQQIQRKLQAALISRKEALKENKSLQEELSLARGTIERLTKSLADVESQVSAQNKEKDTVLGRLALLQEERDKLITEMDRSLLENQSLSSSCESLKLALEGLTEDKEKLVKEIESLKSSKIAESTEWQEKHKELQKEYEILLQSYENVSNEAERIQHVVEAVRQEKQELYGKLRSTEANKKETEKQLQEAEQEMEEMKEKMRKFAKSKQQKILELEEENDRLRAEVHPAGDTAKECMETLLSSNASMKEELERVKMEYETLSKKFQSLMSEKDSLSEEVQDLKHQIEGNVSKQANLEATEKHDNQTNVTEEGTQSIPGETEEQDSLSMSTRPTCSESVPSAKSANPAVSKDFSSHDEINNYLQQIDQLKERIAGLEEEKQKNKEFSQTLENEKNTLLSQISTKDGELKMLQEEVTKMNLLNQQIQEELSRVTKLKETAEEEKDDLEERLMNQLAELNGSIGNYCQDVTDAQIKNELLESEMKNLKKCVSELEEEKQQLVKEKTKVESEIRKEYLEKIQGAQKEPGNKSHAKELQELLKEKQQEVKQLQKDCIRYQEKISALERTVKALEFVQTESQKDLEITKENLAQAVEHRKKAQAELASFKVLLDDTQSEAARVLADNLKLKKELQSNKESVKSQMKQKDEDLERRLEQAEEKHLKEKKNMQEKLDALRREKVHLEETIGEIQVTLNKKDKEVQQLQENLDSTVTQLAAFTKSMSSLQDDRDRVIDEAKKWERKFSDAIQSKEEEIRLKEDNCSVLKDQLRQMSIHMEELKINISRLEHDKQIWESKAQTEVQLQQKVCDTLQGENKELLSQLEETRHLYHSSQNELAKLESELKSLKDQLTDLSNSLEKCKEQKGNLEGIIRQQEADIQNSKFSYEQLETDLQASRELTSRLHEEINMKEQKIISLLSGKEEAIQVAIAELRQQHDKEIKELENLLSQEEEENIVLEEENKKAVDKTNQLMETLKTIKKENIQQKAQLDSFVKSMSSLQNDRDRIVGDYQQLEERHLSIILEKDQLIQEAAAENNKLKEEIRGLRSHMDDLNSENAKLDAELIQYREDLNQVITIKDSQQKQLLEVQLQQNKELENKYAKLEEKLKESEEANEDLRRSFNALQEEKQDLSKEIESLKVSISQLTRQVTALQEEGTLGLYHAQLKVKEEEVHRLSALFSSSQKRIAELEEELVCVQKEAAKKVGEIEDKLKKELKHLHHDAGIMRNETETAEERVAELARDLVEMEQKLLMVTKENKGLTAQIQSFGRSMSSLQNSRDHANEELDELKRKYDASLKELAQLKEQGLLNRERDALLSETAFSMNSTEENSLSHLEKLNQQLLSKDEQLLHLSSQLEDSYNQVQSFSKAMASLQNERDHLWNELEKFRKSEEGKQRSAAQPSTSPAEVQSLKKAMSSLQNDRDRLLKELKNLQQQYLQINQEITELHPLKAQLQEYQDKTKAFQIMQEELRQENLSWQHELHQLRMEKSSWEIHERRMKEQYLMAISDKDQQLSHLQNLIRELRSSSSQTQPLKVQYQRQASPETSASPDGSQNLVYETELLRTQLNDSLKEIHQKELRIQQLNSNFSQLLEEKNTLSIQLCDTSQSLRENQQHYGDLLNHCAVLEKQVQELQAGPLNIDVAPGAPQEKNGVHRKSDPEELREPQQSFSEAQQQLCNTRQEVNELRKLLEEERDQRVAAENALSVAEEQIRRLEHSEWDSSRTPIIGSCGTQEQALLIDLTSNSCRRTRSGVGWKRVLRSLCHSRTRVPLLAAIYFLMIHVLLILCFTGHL
# No constants are given. Whether binding was seen depends on the method and setting. Binding seen in cells or lysates may run through a third protein. Some results given as binding are weak or reduced against the parent protein; the word gives no strength.
# Biological target: T1, RAD51C (human (endogenous in HeLa)) (UniProt O43502)
# T1 sequence: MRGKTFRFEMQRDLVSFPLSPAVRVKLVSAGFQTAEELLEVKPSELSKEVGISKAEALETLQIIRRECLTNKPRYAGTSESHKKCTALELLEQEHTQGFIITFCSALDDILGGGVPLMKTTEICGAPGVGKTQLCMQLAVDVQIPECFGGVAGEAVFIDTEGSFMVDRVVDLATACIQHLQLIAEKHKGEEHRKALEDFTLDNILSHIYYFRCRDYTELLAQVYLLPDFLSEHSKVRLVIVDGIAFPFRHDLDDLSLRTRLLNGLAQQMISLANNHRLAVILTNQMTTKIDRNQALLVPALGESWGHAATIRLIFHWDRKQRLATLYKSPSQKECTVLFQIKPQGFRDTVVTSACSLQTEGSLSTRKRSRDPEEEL
# Test: co-IP
substance,measurement,value
Giantin (GOLGB1) (from UniProt Q14789 1-3259),binding,binds
